Data as given in paper PMC7714070, “The role of the cytoskeletal proteins MreB and FtsZ in multicellular cyanobacteria” (FEBS Open Bio, 2020).

Molecular target: GFP-MreB from Anabaena sp. PCC 7120 (Anabaena sp. PCC 7120)
Test: co-IP; anti-GFP co-immunoprecipitation (µMACS GFP isolation kit) from cell-free lysates of cyanobacteria expressing gfp-mreB from PmreB, PBS with 1% NP-40 and protease inhibitor cocktail, 30 min on ice; western blot with anti-FtsZSubsV and anti-GFP; WT cells as control

binding: no binding
B1: FtsZ of Anabaena sp. PCC 7120, endogenous (protein, UniProt P45482 1-428)
chain: MTLDNNQELTYRNSQSLGQPGFSLAVNSSNPFNHSGLNFGQNNDSKKISVENNRIGEIVPGRVANIKVIGVGGGGGNAVNRMIESDVSGVEFWSINTDAQALTLAGAPSRLQIGQKLTRGLGAGGNPAIGQKAAEESRDEIATALEGADLVFITAGMGGGTGTGAAPIVAEVAKEMGALTVGVVTRPFVFEGRRRTSQAEQGIEGLKSRVDTLIIIPNNKLLEVIPEQTPVQEAFRYADDVLRQGVQGISDIITIPGLVNVDFADVRAVMADAGSALMGIGVSSGKSRAREAAIAAISSPLLECSIEGARGVVFNITGGSDLTLHEVNAAAETIYEVVDPNANIIFGAVIDDRLQGEVRITVIATGFTGEIQAAPQQNAANARVVSAPPKRTPTQTPLTNSPAPTPEPKEKSGLDIPDFLQRRRPPKN

These are yes or no findings as the source states them, for the method shown. In cells and extracts the contact can be indirect.
